Results published in US20250059271A1 (BARRELMAN BIOSCIENCES, published 2025).
These are yes or no findings as the source states them, for the method shown. Some entries that bind do so weakly or less than the wild type.

What was measured:
[1] = target: T1, dProgastrin-SUMO protein (dog, UniProt P01353 22-104); test: ELISA on dProgastrin-Sumo
T1 construct: Unknown whether the listing entry 103 holds the tag; also called dProg-Sumo protein; dog progastrin His-SUMO protein; not shown: N-terminal His-SUMO tag
T1 sequence: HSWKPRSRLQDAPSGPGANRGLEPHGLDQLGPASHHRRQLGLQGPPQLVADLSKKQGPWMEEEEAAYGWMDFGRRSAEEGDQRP

[2] = target: T1, dProgastrin-SUMO protein; test: sandwich ELISA 2
[3] = target: T1, dProgastrin-SUMO protein; test: sandwich ELISA 3
[4] = target: T2, canine recombinant progastrin (canine) (UniProt P01353); test: sandwich ELISA; the sheet prints coating Ab 4 µg/mL 2-A3, detector Ab 0.5 µg/mL 1-H2, streptavidin-HRP 0.15 µg/mL (the text, paragraph 109, gives 1-H2 as coat and biotinylated 2-A3 as detector); progastrin concentration varied
T2 sequence (looked up): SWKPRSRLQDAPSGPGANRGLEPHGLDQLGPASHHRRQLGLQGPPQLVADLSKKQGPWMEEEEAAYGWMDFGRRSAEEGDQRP

[5] = target: T2, canine recombinant progastrin (canine); test: sandwich ELISA
[6] = target: T2, canine recombinant progastrin (canine); test: sandwich ELISA, coat 1-H2, detect biotinylated 2-A3
[7] = target: T2, canine recombinant progastrin (canine); test: sandwich ELISA; the sheet prints coating Ab 4 µg/mL 2-A3, detector Ab 0.5 µg/mL 1-H2, streptavidin-HRP 0.15 µg/mL (the text, paragraph 112, gives 1-H2 as coat and biotinylated 2-A3 as detector); sample concentration varied
[8] = target: T1, dProgastrin-SUMO protein; test: sandwich ELISA 1

Measured: binding

B1: dProg-1-D6 mAb (antibody, V domains shown)
VH: QSLEESEGGLFKPTDTLTLTCTVSGFSLISYGVSWVRQAPGKGLEWIGGIWPGASTYYASWAKSRSTITRNTNLNTVTLKMTSLTAADTATYFCARNSVGWLWGPGTLVTVSS
VL: AQVLTQSASPVSAAVGGTVTINCQASQSIYKNNYLSWYHQKPGQPPKLLIYDASDLASGVPSRFSGSGSGTQFTLTISGVQCEDAATYYCQGEFSCSSADCFAFGGGTEVVVKG
binds: [1] | [2] | [3]

B2: dProg-2-A3 mAb (antibody, V domains shown)
VH: QSVEESRGGLFKPTEPLTLTCTASGFTISSYHMGWVRQTPGKQLEWIGWIGSSGATYYASWATSRSTITRNTNDNTVTLKMTSLTAADTATYFCARSGWGSFDIWGPGALVTVSS
VL: AQVLTQTPASVSAAVGGTVTINCQSSQSVYNNDRLAWFQQKPGQPPKLLIYLASTLASGVPSRFKGSGSGTQFTLTIGEVQCDDAATYYCQSYYNGYIFGFGGGTEVVVKG
notes: Recombinant rabbit monoclonal antibody; same entries as dProg-2-F4; Biotinylated when used for detection; also called dprogastrin-2_A3 mAb
binds: [4] | [5] | [6] | [7]

B3: dProg-2-F4 mAb (antibody, V domains shown)
VH: B2 VH
VL: B2 VL
notes: Recombinant rabbit monoclonal antibody; same entries as dProg-2-A3; also called dprogastrin-2_F4
binds: [1] | [2] | [8] | [3]
